The other results are listed elsewhere or left out.
Each target was assayed with COc1ccc(Cn2ccc3cc(C)c(C(=O)NO)cc32)cc1 (assay: dose-dependent thermal stabilisation call (2D-TPP, DLPTP, 10% FDR) (binary (1 = stabilised)); higher = stabilised by the compound). Conditions: system: HL-60 intact cells; concentration range 0.04-10 µM.
Description: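 2D thermal proteome profiling in intact HL-60 cells treated with BRD-3811 (0, 0.04, 0.29, 2, 10 uM) for 90 min at 37 C, then heated 3 min at one of 12 temperatures (42-63.9 C). Soluble protein was quantified by TMT10 MS. The value is the DLPTP call of the paper: dose-dependent thermal stabilisation over all temperatures at 10% FDR (F-test of a dose-response against a flat model); one experiment, one call per tested protein.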

Amino acid sequences for entries named in this document (tags omitted). A change or cut given only in a name is not applied to a line headed by its entry.
UniProt Q8TDJ6, whole entry: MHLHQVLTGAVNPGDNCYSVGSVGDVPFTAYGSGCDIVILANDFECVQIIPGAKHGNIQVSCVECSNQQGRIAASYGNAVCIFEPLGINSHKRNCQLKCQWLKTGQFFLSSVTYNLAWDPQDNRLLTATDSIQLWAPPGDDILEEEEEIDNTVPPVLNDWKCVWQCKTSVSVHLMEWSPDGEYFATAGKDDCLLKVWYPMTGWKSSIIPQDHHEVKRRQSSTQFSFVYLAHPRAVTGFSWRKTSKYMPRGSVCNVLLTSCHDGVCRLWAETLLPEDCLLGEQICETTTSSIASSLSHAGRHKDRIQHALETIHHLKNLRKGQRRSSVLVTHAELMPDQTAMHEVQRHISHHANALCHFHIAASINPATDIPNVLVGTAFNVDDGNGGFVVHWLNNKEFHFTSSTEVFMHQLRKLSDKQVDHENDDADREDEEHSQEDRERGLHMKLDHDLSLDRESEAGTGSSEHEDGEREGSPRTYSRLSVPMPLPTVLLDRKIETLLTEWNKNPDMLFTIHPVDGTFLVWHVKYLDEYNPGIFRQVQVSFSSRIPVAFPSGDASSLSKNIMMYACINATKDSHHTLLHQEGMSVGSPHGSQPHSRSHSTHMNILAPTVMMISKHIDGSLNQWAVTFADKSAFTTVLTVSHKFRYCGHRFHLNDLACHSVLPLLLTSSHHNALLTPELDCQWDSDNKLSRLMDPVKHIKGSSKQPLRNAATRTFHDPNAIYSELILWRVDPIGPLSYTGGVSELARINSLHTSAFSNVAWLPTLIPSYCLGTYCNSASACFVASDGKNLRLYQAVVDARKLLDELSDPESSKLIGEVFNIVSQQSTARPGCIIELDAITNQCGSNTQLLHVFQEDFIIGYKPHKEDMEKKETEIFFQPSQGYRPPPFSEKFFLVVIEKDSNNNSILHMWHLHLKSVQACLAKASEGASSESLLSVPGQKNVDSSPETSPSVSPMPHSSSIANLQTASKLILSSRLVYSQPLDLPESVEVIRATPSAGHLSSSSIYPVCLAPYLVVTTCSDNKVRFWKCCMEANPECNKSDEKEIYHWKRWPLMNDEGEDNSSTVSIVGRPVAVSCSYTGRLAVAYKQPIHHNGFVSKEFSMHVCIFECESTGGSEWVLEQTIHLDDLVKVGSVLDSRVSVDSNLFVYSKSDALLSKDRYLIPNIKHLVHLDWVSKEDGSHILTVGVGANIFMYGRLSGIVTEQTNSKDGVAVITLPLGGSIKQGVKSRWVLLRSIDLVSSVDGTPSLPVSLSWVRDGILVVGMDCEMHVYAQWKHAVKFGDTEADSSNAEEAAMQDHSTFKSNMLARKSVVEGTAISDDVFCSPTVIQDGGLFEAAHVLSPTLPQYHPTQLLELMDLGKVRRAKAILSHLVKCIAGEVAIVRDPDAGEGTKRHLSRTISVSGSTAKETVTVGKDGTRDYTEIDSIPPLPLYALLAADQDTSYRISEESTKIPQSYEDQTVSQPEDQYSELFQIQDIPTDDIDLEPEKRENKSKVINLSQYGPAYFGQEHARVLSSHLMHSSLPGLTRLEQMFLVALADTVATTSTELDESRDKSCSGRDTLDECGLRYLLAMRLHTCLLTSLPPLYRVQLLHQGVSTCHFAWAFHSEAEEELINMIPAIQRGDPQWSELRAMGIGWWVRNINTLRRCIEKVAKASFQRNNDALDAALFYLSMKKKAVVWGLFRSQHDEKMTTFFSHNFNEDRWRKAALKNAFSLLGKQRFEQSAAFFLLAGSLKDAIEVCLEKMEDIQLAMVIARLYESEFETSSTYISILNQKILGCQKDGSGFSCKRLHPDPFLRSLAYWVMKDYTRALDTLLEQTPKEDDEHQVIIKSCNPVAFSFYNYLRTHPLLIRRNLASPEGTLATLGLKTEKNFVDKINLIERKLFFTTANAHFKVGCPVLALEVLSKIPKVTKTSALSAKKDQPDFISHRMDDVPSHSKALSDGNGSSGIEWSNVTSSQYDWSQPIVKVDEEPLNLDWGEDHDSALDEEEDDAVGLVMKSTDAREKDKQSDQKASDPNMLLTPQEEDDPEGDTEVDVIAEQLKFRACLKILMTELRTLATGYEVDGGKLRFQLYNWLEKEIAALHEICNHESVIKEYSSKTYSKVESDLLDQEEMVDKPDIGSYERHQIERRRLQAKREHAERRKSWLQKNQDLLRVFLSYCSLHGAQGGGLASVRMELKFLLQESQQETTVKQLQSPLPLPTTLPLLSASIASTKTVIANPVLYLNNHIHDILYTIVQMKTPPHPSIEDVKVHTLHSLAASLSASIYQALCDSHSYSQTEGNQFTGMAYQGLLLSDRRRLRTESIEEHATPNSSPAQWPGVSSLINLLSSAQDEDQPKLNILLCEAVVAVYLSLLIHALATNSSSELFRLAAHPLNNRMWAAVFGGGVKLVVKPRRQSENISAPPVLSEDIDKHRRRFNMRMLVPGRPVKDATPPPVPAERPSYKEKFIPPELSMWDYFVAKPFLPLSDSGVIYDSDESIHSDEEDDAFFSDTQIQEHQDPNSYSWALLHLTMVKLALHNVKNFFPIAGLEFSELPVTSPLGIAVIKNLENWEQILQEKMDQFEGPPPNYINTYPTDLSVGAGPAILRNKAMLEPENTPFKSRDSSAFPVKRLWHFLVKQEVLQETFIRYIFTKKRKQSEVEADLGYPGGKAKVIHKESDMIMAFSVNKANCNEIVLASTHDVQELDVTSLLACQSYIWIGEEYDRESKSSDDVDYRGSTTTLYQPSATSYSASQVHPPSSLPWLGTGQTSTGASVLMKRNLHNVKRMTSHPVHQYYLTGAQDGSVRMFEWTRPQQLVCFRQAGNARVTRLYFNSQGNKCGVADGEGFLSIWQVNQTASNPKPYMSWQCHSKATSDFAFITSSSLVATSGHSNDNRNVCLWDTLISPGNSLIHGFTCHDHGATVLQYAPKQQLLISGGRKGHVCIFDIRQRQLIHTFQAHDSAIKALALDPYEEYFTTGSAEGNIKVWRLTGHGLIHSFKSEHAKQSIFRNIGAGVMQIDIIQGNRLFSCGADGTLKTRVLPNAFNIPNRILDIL
UniProt O75190: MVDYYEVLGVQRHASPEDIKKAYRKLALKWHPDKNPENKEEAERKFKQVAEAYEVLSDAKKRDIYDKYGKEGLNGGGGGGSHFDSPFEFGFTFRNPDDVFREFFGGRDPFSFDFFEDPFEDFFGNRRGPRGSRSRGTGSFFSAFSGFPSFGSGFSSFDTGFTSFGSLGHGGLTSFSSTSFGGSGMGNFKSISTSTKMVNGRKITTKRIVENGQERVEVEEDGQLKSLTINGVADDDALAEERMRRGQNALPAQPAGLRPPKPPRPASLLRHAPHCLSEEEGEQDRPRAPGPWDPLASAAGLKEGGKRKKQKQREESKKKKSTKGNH
UniProt Q8TEH3: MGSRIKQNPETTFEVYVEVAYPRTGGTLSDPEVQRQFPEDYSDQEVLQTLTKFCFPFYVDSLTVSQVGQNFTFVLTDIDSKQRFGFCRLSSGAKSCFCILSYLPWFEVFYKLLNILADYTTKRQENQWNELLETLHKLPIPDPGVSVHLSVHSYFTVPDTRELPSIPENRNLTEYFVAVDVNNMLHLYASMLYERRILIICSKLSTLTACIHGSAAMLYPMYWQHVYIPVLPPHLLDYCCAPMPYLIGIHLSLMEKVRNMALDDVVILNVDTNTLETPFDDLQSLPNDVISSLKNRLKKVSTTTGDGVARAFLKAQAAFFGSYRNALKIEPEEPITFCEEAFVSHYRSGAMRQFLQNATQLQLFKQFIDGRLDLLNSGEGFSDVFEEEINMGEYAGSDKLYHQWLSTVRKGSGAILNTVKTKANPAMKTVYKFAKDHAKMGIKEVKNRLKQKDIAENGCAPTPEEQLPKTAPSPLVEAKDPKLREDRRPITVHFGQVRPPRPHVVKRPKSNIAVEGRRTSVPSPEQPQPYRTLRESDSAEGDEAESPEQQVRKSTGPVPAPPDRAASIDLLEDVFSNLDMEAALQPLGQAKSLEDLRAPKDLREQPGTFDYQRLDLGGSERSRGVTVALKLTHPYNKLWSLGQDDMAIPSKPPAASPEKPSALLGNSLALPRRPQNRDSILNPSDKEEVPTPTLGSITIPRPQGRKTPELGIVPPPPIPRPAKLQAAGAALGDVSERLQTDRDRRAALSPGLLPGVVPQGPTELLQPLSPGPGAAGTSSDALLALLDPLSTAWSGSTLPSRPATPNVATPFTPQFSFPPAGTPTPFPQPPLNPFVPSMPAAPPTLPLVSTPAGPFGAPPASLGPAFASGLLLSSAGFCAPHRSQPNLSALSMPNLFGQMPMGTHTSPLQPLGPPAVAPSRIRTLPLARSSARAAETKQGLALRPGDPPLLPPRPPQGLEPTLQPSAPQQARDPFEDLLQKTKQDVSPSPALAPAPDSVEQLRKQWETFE
UniProt Q9NTM9: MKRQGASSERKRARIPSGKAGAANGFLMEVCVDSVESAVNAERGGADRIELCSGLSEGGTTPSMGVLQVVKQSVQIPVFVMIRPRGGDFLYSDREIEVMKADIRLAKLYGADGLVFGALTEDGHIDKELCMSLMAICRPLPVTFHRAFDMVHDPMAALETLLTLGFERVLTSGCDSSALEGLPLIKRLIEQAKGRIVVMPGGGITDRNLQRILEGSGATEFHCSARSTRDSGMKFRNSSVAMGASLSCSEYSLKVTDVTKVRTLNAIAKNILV
UniProt P98153: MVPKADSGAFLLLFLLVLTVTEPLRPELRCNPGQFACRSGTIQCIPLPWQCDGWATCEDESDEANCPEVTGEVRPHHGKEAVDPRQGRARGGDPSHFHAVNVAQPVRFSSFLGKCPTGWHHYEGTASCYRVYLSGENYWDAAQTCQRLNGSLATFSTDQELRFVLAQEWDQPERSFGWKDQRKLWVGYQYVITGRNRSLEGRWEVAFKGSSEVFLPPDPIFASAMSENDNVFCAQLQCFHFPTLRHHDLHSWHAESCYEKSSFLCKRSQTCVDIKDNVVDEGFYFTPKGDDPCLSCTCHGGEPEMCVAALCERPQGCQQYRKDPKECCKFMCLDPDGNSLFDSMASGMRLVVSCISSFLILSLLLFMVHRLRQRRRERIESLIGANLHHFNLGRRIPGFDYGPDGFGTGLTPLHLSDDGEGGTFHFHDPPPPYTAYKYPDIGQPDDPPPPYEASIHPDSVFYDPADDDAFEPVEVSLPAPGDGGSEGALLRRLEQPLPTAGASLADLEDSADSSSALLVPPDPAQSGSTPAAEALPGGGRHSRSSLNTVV
UniProt Q9NPF5, whole entry: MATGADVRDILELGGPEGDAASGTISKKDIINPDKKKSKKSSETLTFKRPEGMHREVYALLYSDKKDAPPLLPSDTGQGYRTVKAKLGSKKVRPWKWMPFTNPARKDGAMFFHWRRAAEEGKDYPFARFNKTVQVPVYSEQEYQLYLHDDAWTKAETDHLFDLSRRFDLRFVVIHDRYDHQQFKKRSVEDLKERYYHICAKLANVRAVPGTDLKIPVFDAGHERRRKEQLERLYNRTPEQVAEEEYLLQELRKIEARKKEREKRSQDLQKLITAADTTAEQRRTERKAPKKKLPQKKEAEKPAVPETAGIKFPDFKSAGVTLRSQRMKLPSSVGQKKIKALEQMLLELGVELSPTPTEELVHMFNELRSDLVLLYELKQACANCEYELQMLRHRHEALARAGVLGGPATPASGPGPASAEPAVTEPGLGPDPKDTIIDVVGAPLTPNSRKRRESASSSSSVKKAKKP
UniProt Q9H3H5: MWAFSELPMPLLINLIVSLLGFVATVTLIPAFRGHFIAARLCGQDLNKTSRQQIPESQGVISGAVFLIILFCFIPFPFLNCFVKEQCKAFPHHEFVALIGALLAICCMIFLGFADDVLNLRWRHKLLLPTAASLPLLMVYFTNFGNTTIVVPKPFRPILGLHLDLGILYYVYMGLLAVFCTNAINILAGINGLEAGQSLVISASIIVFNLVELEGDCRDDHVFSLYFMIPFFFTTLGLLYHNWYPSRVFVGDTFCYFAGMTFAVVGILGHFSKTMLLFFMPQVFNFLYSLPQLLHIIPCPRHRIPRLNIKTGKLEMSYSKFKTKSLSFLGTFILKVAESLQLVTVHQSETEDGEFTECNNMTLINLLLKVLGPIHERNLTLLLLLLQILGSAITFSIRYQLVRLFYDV
UniProt P36957: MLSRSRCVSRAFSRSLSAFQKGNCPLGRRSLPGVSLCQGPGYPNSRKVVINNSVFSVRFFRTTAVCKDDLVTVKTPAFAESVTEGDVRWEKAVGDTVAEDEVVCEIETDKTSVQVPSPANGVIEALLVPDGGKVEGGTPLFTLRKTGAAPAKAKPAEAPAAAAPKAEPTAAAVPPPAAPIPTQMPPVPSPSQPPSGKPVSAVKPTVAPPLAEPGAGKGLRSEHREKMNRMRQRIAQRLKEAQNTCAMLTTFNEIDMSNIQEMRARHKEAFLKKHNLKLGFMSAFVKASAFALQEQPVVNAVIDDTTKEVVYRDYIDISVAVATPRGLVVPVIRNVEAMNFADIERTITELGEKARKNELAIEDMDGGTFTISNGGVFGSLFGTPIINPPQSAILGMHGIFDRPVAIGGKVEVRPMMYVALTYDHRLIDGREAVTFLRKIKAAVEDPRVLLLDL

Target	dose-dependent thermal stabilisation call
DPY19L3 (UniProt Q6ZPD9)	inactive: 0
DMXL2 (UniProt Q8TDJ6)	inactive: 0
DNA2 (UniProt P51530)	inactive: 0
CTDP1 (UniProt Q9Y5B0)	inactive: 0
DNAJB6 (UniProt O75190)	inactive: 0
CSRP1 (UniProt P21291)	inactive: 0
DKFZP434B0335	inactive: 0
DENND1A (UniProt Q8TEH3)	inactive: 0
DLD (UniProt P09622)	inactive: 0
CYP2U1 (UniProt Q7Z449)	inactive: 0
DENND4B (UniProt O75064)	inactive: 0
DDI2 (UniProt Q5TDH0)	inactive: 0
CUTC (UniProt Q9NTM9)	inactive: 0
DERL1 (UniProt Q9BUN8)	inactive: 0
CYFIP1 (UniProt Q7L576)	inactive: 0
DCTN2 (UniProt Q13561)	inactive: 0
CSTA (UniProt P01040)	inactive: 0
DDX18 (UniProt Q9NVP1)	inactive: 0

Some of the entries so far, as comma-separated lines:
Target,dose-dependent thermal stabilisation call
DPY19L3 (UniProt Q6ZPD9),inactive: 0
DMXL2 (UniProt Q8TDJ6),inactive: 0
DNA2 (UniProt P51530),inactive: 0
CTDP1 (UniProt Q9Y5B0),inactive: 0
DNAJB6 (UniProt O75190),inactive: 0
CSRP1 (UniProt P21291),inactive: 0
DKFZP434B0335,inactive: 0
DENND1A (UniProt Q8TEH3),inactive: 0
DLD (UniProt P09622),inactive: 0
CYP2U1 (UniProt Q7Z449),inactive: 0
DENND4B (UniProt O75064),inactive: 0

Later entries:

Target	dose-dependent thermal stabilisation call
CTPS (UniProt P17812)	inactive: 0
CYB5R4 (UniProt Q7L1T6)	inactive: 0
DGCR2 (UniProt P98153)	inactive: 0
DMAP1 (UniProt Q9NPF5)	inactive: 0
CTSA (UniProt P10619)	inactive: 0
DARS (UniProt P14868)	inactive: 0
DOCK7 (UniProt Q96N67)	inactive: 0
DAD1 (UniProt P61803)	inactive: 0
DDX20 (UniProt Q9UHI6)	inactive: 0
DPAGT1 (UniProt Q9H3H5)	inactive: 0
DLST (UniProt P36957)	inactive: 0
DNMT1 (UniProt P26358)	inactive: 0
DHCR24 (UniProt Q15392)	inactive: 0
CYTSA (UniProt Q69YQ0)	inactive: 0
DNAJC19 (UniProt Q96DA6)	inactive: 0
CYB5B (UniProt O43169)	inactive: 0
DNPEP (UniProt Q9ULA0)	inactive: 0
DCAKD (UniProt Q8WVC6)	inactive: 0
